Test results as given in PMC7956682.
These are yes or no findings as the source states them, for the method shown. In cells and extracts the contact can be indirect. Some results given as binding are weak or reduced against the parent protein; the word gives no strength.

The chains behind the UniProt entries cited, without tags or fusion partners. Where a name states a change or a piece, a line headed by the entry shows the natural chain unless it says otherwise.
UniProt P29067: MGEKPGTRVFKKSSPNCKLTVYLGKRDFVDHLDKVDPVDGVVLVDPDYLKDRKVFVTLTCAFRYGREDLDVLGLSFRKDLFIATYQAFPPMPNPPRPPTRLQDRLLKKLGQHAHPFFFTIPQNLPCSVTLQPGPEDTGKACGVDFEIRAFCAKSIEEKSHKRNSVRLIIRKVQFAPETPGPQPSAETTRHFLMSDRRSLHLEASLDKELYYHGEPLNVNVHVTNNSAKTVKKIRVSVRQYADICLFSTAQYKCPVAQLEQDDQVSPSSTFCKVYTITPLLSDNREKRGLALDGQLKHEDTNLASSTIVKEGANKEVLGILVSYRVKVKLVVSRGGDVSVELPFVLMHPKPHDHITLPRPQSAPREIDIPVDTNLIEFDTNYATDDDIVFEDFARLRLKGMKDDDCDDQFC

Molecular target: L395Q ARRB2-YFP (UniProt P29067)
Assay: co-IP; lysates of transfected HEK293 cells on GFP-Trap magnetic beads (anti-GFP VHH) overnight at 4 °C, three washes in RIPA buffer, eluates immunoblotted; GFP plasmid as negative control

binding: binds
B1: treacle protein (TCOF1) (protein, UniProt Q13428 1-1488)
chain: MAEARKRRELLPLIYHHLLRAGYVRAAREVKEQSGQKCFLAQPVTLLDIYTHWQQTSELGRKRKAEEDAALQAKKTRVSDPISTSESSEEEEEAEAETAKATPRLASTNSSVLGADLPSSMKEKAKAETEKAGKTGNSMPHPATGKTVANLLSGKSPRKSAEPSANTTLVSETEEEGSVPAFGAAAKPGMVSAGQADSSSEDTSSSSDETDVEGKPSVKPAQVKASSVSTKESPARKAAPAPGKVGDVTPQVKGGALPPAKRAKKPEEESESSEEGSESEEEAPAGTRSQVKASEKILQVRAASAPAKGTPGKGATPAPPGKAGAVASQTKAGKPEEDSESSSEESSDSEEETPAAKALLQAKASGKTSQVGAASAPAKESPRKGAAPAPPGKTGPAVAKAQAGKREEDSQSSSEESDSEEEAPAQAKPSGKAPQVRAASAPAKESPRKGAAPAPPRKTGPAAAQVQVGKQEEDSRSSSEESDSDREALAAMNAAQVKPLGKSPQVKPASTMGMGPLGKGAGPVPPGKVGPATPSAQVGKWEEDSESSSEESSDSSDGEVPTAVAPAQEKSLGNILQAKPTSSPAKGPPQKAGPVAVQVKAEKPMDNSESSEESSDSADSEEAPAAMTAAQAKPALKIPQTKACPKKTNTTASAKVAPVRVGTQAPRKAGTATSPAGSSPAVAGGTQRPAEDSSSSEESDSEEEKTGLAVTVGQAKSVGKGLQVKAASVPVKGSLGQGTAPVLPGKTGPTVTQVKAEKQEDSESSEEESDSEEAAASPAQVKTSVKKTQAKANPAAARAPSAKGTISAPGKVVTAAAQAKQRSPSKVKPPVRNPQNSTVLARGPASVPSVGKAVATAAQAQTGPEEDSGSSEEESDSEEEAETLAQVKPSGKTHQIRAALAPAKESPRKGAAPTPPGKTGPSAAQAGKQDDSGSSSEESDSDGEAPAAVTSAQVIKPPLIFVDPNRSPAGPAATPAQAQAASTPRKARASESTARSSSSESEDEDVIPATQCLTPGIRTNVVTMPTAHPRIAPKASMAGASSSKESSRISDGKKQEGPATQVSKKNPASLPLTQAALKVLAQKASEAQPPVARTQPSSGVDSAVGTLPATSPQSTSVQAKGTNKLRKPKLPEVQQATKAPESSDDSEDSSDSSSGSEEDGEGPQGAKSAHTLGPTPSRTETLVEETAAESSEDDVVAPSQSLLSGYMTPGLTPANSQASKATPKLDSSPSVSSTLAAKDDPDGKQEAKPQQAAGMLSPKTGGKEAASGTTPQKSRKPKKGAGNPQASTLALQSNITQCLLGQPWPLNEAQVQASVVKVLTELLEQERKKVVDTTKESSRKGWESRKRKLSGDQPAARTPRSKKKKKLGAGEGGEASVSPEKTSTTSKGKAKRDKASGDVKEKKGKGSLGSQGAKDEPEEELQKGMGTVEGGDQSNPKSKKEKKKSDKRKKDKEKKEKKKKAKKASTKDSESPSQKKKKKKKKTAEQTV
